Laboratory results: PubChem BioAssay AID1259308 (NCATS, 2017)
Shown is an unselected part of about 59,000 reagents tested. In the full data, about 1,510 (2.6%) got an active call. 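Calls use total luciferase alone and ignore viability, so some active siRNAs may act by altering cell number.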 Reagents against one gene are numbered here. Reagent sequences are not shown.

Screen: 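Knock-downs that increase output of a recombinant reporter protein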 (primary screen)
Cell system: human HEK293 embryonic kidney cells stably expressing firefly luciferase (HEK-CMV-Luc2-Hygro)
Reagent: single siRNA against human genes, 0.8 pmol siRNA per well
Duration: 72 h
Detection: 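Luciferase light (ONE-Glo) measured on one replicate plate set and viability (CellTiter-Glo) on the other, scaled to a negative control siRNA, with robust z-scores and luciferase per cell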
Reading the numbers: total luciferase, z-score and total luciferase, % of control: higher = more reporter protein produced; luciferase per cell, z-score: higher = more reporter output per viable cell; viable cells, % of control: higher = more viable cells
Hit rule: 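Active when the median/MAD z-score for overall luciferase is greater than 3; a gene was taken forward for validation with new siRNAs if at least two of its three siRNAs passed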
Calls: active = raised luciferase; inactive = no rise

no.	gene	siRNA no.	total luciferase, z-score	total luciferase, % of control	luciferase per cell, z-score	viable cells, % of control	Call
1	SLC19A3	1	0.577	93.4	0.049	103	inactive
2	SLC19A3	2	0.108	84	0.276	87.3	inactive
3	SLC19A3	3	-2.81	26	-2.1	50.6	inactive
4	EIF3A (eukaryotic translation initiation factor 3 subunit A)	1	-1.83	45.4	-1.29	71.2	inactive
5	EIF3A (eukaryotic translation initiation factor 3 subunit A)	2	-1.9	44.1	-0.852	61.6	inactive
6	EIF3A (eukaryotic translation initiation factor 3 subunit A)	3	-2.29	36.3	-1.77	64.6	inactive
7	WNK4 (WNK lysine deficient protein kinase 4)	1	0.17	85.3	0.418	85.3	inactive
8	WNK4 (WNK lysine deficient protein kinase 4)	2	-0.363	74.7	-0.665	99.4	inactive
9	WNK4 (WNK lysine deficient protein kinase 4)	3	-0.116	79.6	0.214	84.1	inactive
10	XCR1 (X-C motif chemokine receptor 1)	1	0.581	93.4	0.0245	104	inactive
11	XCR1 (X-C motif chemokine receptor 1)	2	-1.68	48.4	-1.93	89.8	inactive
12	XCR1 (X-C motif chemokine receptor 1)	3	1.77	117	1.2	95.6	inactive
13	ANGPT2 (angiopoietin 2)	1	-0.201	77.9	-0.348	95.4	inactive
14	ANGPT2 (angiopoietin 2)	2	-0.928	63.4	-0.52	81.3	inactive
15	ANGPT2 (angiopoietin 2)	3	0.455	90.9	0.0974	99	inactive
16	PARD6B (par-6 family cell polarity regulator beta)	1	0.681	95.4	0.912	83.9	inactive
17	PARD6B (par-6 family cell polarity regulator beta)	2	0.325	88.4	-0.104	101	inactive
18	PARD6B (par-6 family cell polarity regulator beta)	3	-2.11	40	-1.78	71.4	inactive
19	OR4X1 (olfactory receptor family 4 subfamily X member 1)	1	-1.02	61.6	-0.883	86.8	inactive
20	OR4X1 (olfactory receptor family 4 subfamily X member 1)	2	-0.366	74.6	-0.899	106	inactive
21	OR4X1 (olfactory receptor family 4 subfamily X member 1)	3	0.0514	82.9	-0.756	113	inactive
22	UBE2I (ubiquitin conjugating enzyme E2 I)	1	-0.959	62.8	-0.794	86.5	inactive
23	UBE2I (ubiquitin conjugating enzyme E2 I)	2	2.46	131	2.53	75	inactive
24	UBE2I (ubiquitin conjugating enzyme E2 I)	3	-0.345	75	0.164	80.3	inactive
25	DOK1 (docking protein 1)	1	1.03	102	0.78	93.2	inactive
26	DOK1 (docking protein 1)	2	0.408	90	0.0263	99.9	inactive
27	DOK1 (docking protein 1)	3	1.11	104	1.12	86.6	inactive
28	CCDC125 (coiled-coil domain containing 125)	1	0.94	101	0.792	91.2	inactive
29	CCDC125 (coiled-coil domain containing 125)	2	-0.271	76.5	0.018	85.1	inactive
30	CCDC125 (coiled-coil domain containing 125)	3	1.25	107	1.42	82.2	inactive
31	SLC4A2	1	0.777	97.3	0.643	91.8	inactive
32	SLC4A2	2	-2.07	40.7	-1.18	62.1	inactive
33	SLC4A2	3	-1.3	56.1	-1.34	89.3	inactive
34	OVGP1 (oviductal glycoprotein 1)	1	-0.565	70.6	-0.158	82.3	inactive
35	OVGP1 (oviductal glycoprotein 1)	2	0.0924	83.7	0.622	79.4	inactive
36	OVGP1 (oviductal glycoprotein 1)	3	-1.55	51.1	-1.12	76.6	inactive
37	SLC35A1	1	0.245	86.8	0.327	89	inactive
38	SLC35A1	2	0.441	90.7	0.375	91.8	inactive
39	SLC35A1	3	3.74	156	2.86	82.2	active
40	RPL31 (ribosomal protein L31)	1	-2.83	25.6	-2.85	60.5	inactive
41	RPL31 (ribosomal protein L31)	2	-2.55	31.2	-0.146	36.2	inactive
42	RPL31 (ribosomal protein L31)	3	-2.55	31.2	-1.37	50	inactive
43	FMNL2 (formin like 2)	1	2.49	131	1.59	96.6	inactive
44	FMNL2 (formin like 2)	2	-0.92	63.6	-1.66	110	inactive
45	FMNL2 (formin like 2)	3	-0.121	79.5	0.36	80.8	inactive
46	LOC646804 (alkylated DNA repair protein alkB homolog 8-like)	1	0.183	85.5	-0.0925	97.9	inactive
47	LOC646804 (alkylated DNA repair protein alkB homolog 8-like)	2	0.339	88.6	0.129	95.7	inactive
48	LOC646804 (alkylated DNA repair protein alkB homolog 8-like)	3	1.55	113	1.03	96	inactive
49	RALGPS2 (Ral GEF with PH domain and SH3 binding motif 2)	1	-0.115	79.6	-0.118	91.7	inactive
50	RALGPS2 (Ral GEF with PH domain and SH3 binding motif 2)	2	-0.179	78.3	0.634	74.1	inactive
51	RALGPS2 (Ral GEF with PH domain and SH3 binding motif 2)	3	-0.885	64.3	-1.13	96.7	inactive
52	UBE2U (ubiquitin conjugating enzyme E2 U)	1	0.23	86.5	-0.0326	97.5	inactive
53	UBE2U (ubiquitin conjugating enzyme E2 U)	2	1.68	115	2.08	74.6	inactive
54	UBE2U (ubiquitin conjugating enzyme E2 U)	3	-1.08	60.4	-1.06	89.3	inactive
55	LINC00467 (long independently transcribed non-coding RNA 467)	1	0.978	101	0.581	97.2	inactive
56	LINC00467 (long independently transcribed non-coding RNA 467)	2	0.372	89.3	0.0928	97.4	inactive
57	LINC00467 (long independently transcribed non-coding RNA 467)	3	3.94	160	4.21	59.1	active
58	RNASE9 (ribonuclease A family member 9 (inactive))	1	1.8	118	0.85	105	inactive
59	RNASE9 (ribonuclease A family member 9 (inactive))	2	-0.492	72.1	-0.601	94.4	inactive
60	RNASE9 (ribonuclease A family member 9 (inactive))	3	-0.325	75.4	-1.04	111	inactive
61	ACP6 (acid phosphatase 6, lysophosphatidic)	1	-0.725	67.5	-0.479	85.5	inactive
62	ACP6 (acid phosphatase 6, lysophosphatidic)	2	-0.0145	81.6	-0.314	99	inactive
63	ACP6 (acid phosphatase 6, lysophosphatidic)	3	-0.248	76.9	-0.39	95.3	inactive
64	SLC39A2	1	-0.891	64.2	-1.07	94.9	inactive
65	SLC39A2	2	-0.608	69.8	-0.268	83.7	inactive
66	SLC39A2	3	0.361	89.1	0.211	94.2	inactive
67	USP1 (ubiquitin specific peptidase 1)	1	0.467	91.2	0.724	84.2	inactive
68	USP1 (ubiquitin specific peptidase 1)	2	-1.06	60.7	0.135	65.5	inactive
69	USP1 (ubiquitin specific peptidase 1)	3	-0.877	64.4	-1.23	99.6	inactive
70	B3GALT2 (beta-1,3-galactosyltransferase 2)	1	0.541	92.6	0.148	99.6	inactive
71	B3GALT2 (beta-1,3-galactosyltransferase 2)	2	1.41	110	0.468	109	inactive
72	B3GALT2 (beta-1,3-galactosyltransferase 2)	3	-0.475	72.4	-0.789	99.6	inactive
73	DDX39A (DExD-box helicase 39A)	1	0.307	88	0.896	77.6	inactive
74	DDX39A (DExD-box helicase 39A)	2	-0.877	64.4	-1.09	96	inactive
75	DDX39A (DExD-box helicase 39A)	3	-0.767	66.6	-0.756	90.9	inactive

Active calls (from the list above):
gene	siRNA no.	total luciferase, z-score	total luciferase, % of control	luciferase per cell, z-score	viable cells, % of control	Call
SLC35A1	3	3.74	156	2.86	82.2	active
LINC00467 (long independently transcribed non-coding RNA 467)	3	3.94	160	4.21	59.1	active
